The list is a part of this screen's results and no random one: it is rich in T/C values a quarter to a half above the control, in often repeated tests (any T/C) and in doses without a T/C. Other doses and runs of a compound stand elsewhere. T/C is the treated group as % of the vehicle group. Some entries give survivors of the animals treated and no T/C: the source files T/C as zero there, which appears to mark a toxic dose or a test without result, not a measured value. Some doses without a T/C left all or most animals alive at the check, yet need not have been tolerated: survival well below the control is almost never listed, so the zero probably covers shortened survival too. Counts of survivors are from the toxicity check (mostly the fifth day) where no day follows; animals may have died later. Schedules are NCI's codes, taken here to give the interval after Q, in days (D) or hours (H), and the number of doses after X. Some schedules carry Z or #; the key to these is not given. For survival time, this PubChem deposit counts one and a half times the control or more as active, and values a quarter to a half above the control carry no call in these data; other NCI protocols may use other cut-offs.
Test system: L1210 leukemia ip in BDF1 mice, survival T/C
Test: NCI In Vivo Anticancer Drug Screen. Data for tumor model L1210 Leukemia (intraperitoneal) in B6D2F1 (BDF1) mice
Settings: T/C endpoint: mean survival time, higher T/C = longer survival
[1] = dose: 200.0 mg/kg/injection, schedule: Q01DX001 (ip), vehicle: carboxymethylcellulose (CMC)
[2] = dose: 200.0 mg/kg/injection, schedule: Q04DX003 (ip), vehicle: saline with Tween-80
[3] = dose: 400.0 mg/kg/injection, schedule: Q01DX001 (ip), vehicle: carboxymethylcellulose (CMC)
[4] = dose: 400.0 mg/kg/injection, schedule: Q01DX001 (ip), vehicle: other
[5] = dose: 400.0 mg/kg/injection, schedule: Q04DX003 (ip), vehicle: saline with Tween-80
[6] = dose: 300.0 mg/kg/injection, schedule: Q01DX001 (ip), vehicle: carboxymethylcellulose (CMC)
[7] = dose: 300.0 mg/kg/injection, schedule: Q01DX001 (ip), vehicle: saline
[8] = dose: 400.0 mg/kg/injection, schedule: Q04DX003 (ip), vehicle: Klucel (hydroxypropylcellulose) (HPC)
[9] = dose: 200.0 mg/kg/injection, schedule: Q01DX009 (ip), vehicle: saline

## NC(=O)C1(Nc2ccc(-c3ccc(Br)cc3)cc2)CCCC1
[1]
  survivor count: 3 of 4

## COC1OC2COC(c3ccccc3)OC2C(O)C1N (stereo not drawn)
[2]
  survivor count: 0 of 6

## C[C@]12CC[C@H](O)C[C@@]1(O)CC[C@@H]1[C@@H]2CC[C@]2(C)[C@@H](c3ccc(=O)oc3)CC[C@]12O
dose: 100.0 mg/kg/injection, schedule: Q01DX009 (ip), vehicle: carboxymethylcellulose (CMC)
  survivor count: 0 of 6
[1]
  survivor count: 0 of 6
dose: 200.0 mg/kg/injection, schedule: Q01DX009 (ip), vehicle: carboxymethylcellulose (CMC)
  survivor count: 0 of 6
[3]
  survivor count: 0 of 6

## C[n+]1cccc2cccc(N)c21
dose: 100.0 mg/kg/injection, schedule: Q01DX001 (ip), vehicle: other
  survivor count: 1 of 4
dose: 200.0 mg/kg/injection, schedule: Q01DX001 (ip), vehicle: other
  survivor count: 1 of 4
[4]
  survivor count: 0 of 4

## CC12CCC(C1)C(C)(C)/C2=N\N=C(N)N (stereo not drawn)
dose: 1500.0 mg/kg/injection, schedule: Q01DX Z (oral), vehicle: saline
  survivor count: 1 of 6

## CCSSCC(NC(=O)OC(C)(C)C)C(=O)O (stereo not drawn)
[4]
  survivor count: 0 of 6

## NCCSC(C[N+](=O)[O-])c1ccc2c(c1)OCO2 (stereo not drawn)
[5]
  survivor count: 2 of 6

## CCCCCCCCCCCC(=O)[O][Pb]([CH2]C)([CH2]C)[CH2]C
dose: 25.0 mg/kg/injection, schedule: Q04DX003 (ip), vehicle: saline with Tween-80
  survivor count: 5 of 6
[2]
  survivor count: 0 of 6
[5]
  survivor count: 0 of 6

## O=CCC1C=CCC1 (stereo not drawn)
[6]
  survivor count: 0 of 6

## c1ccc(SSc2ccccc2)cc1
dose: 100.0 mg/kg/injection, schedule: Q01DX009 (ip), vehicle: saline with Tween-80
  survivor count: 6 of 6

## O=C1CCCCC1(O)C[N+](=O)[O-] (stereo not drawn)
dose: 150.0 mg/kg/injection, schedule: Q01DX001 (ip), vehicle: carboxymethylcellulose (CMC)
  survivor count: 1 of 6
[6]
  survivor count: 1 of 6

## CCCCC(=O)NC1=C(Cl)C(=O)c2ccccc2C1=O
[7]
  survivor count: 2 of 6

## CCOC(=O)/C(C#N)=C\c1ccccc1Cl
[8]
  survivor count: 3 of 6

## COc1ccc(NC(=O)Oc2ccc(Br)cc2Br)c(OC)c1
dose: 400.0 mg/kg/injection, schedule: Q01DX009 (ip), vehicle: Klucel (hydroxypropylcellulose) (HPC)
  survivor count: 3 of 6

## ClC1=C(Cl)[C@@]2(Cl)[C@H]3[C@H]4C[C@H]([C@@H]5O[C@H]45)[C@H]3[C@@]1(Cl)C2(Cl)Cl
dose: 16.0 mg/kg/injection, schedule: Q01DX009 (ip), vehicle: acetone
  survivor count: 1 of 6
dose: 32.0 mg/kg/injection, schedule: Q01DX009 (ip), vehicle: acetone
  survivor count: 0 of 6
dose: 50.0 mg/kg/injection, schedule: Q01DX001 (ip), vehicle: acetone
  survivor count: 2 of 6
dose: 64.0 mg/kg/injection, schedule: Q01DX009 (ip), vehicle: acetone
  survivor count: 0 of 6
dose: 100.0 mg/kg/injection, schedule: Q01DX001 (ip), vehicle: acetone
  survivor count: 2 of 6
dose: 128.0 mg/kg/injection, schedule: Q01DX009 (ip), vehicle: acetone
  survivor count: 0 of 6
dose: 200.0 mg/kg/injection, schedule: Q01DX001 (ip), vehicle: acetone
  survivor count: 0 of 6

## Cc1cnc(SCc2ccc(Cl)cc2)[nH]c1=S
dose: 100.0 mg/kg/injection, schedule: Q01DX Z (ip), vehicle: methylcellulose (MC)
  survivor count: 6 of 6
dose: 200.0 mg/kg/injection, schedule: Q01DX Z (ip), vehicle: methylcellulose (MC)
  survivor count: 6 of 6

## CS(=O)(=O)OC/C(Br)=C/Br
[3]
  survivor count: 2 of 4

## Cc1ccccc1N=C(N)Nc1ccccc1C
dose: 40.0 mg/kg/injection, schedule: Q01DX001 (ip), vehicle: carboxymethylcellulose (CMC)
  survivor count: 1 of 6
dose: 50.0 mg/kg/injection, schedule: Q01DX001 (ip), vehicle: carboxymethylcellulose (CMC)
  survivor count: 0 of 4
dose: 50.0 mg/kg/injection, schedule: Q01DX001 (ip), vehicle: other
  survivor count: 2 of 6
dose: 80.0 mg/kg/injection, schedule: Q01DX001 (ip), vehicle: carboxymethylcellulose (CMC)
  survivor count: 0 of 6
dose: 100.0 mg/kg/injection, schedule: Q01DX001 (ip), vehicle: carboxymethylcellulose (CMC)
  survivor count: 0 of 4
[1]
  survivor count: 0 of 4
[3]
  survivor count: 0 of 4

## COc1cc2c(c(OC)c1OC)-c1ccc(SC)c(=O)cc1C(NC1OC(CO)C(O)C(O)C1O)CC2 (stereo not drawn)
dose: 200.0 mg/kg/injection, schedule: Q01DX005 (ip), vehicle: saline
  survivor count: 2 of 4

## CCN(CC)CCN(C)C(=O)C(=O)c1ccccc1
[7]
  survivor count: 2 of 6

## Cc1c2oc3c(C)ccc(C(=O)NCCN4CCOCC4)c3nc-2c(C(=O)NCCN2CCOCC2)c(N)c1=O
dose: 400.0 mg/kg/injection, schedule: Q04DX002 (ip), vehicle: saline with Tween-80
  survivor count: 3 of 3

## CC1(C)CC(=O)C=C(NC2CCCCC2)C1
[8]
  survivor count: 3 of 6

## CCCCCC[Si](Cl)(CCCCCC)CCCCCC
dose: 400.0 mg/kg/injection, schedule: Q01DX001 (ip), vehicle: saline
  survivor count: 1 of 6

## O=C(OCC1OC(n2cnc3c(=S)nc[nH]c32)C(OC(=O)c2ccc(Cl)cc2)C1OC(=O)c1ccc(Cl)cc1)c1ccc(Cl)cc1 (stereo not drawn)
[9]
  T/C: 132 % of control
dose: 400.0 mg/kg/injection, schedule: Q01DX009 (ip), vehicle: saline
  T/C: 148 % of control

## Oc1ccc(C(O)(c2ccccc2)c2ccc(O)c3ccccc23)c2ccccc12
dose: 400.0 mg/kg/injection, schedule: Q01DX009 (ip), vehicle: saline with Tween-80
  survivor count: 2 of 6

## CCCCCCC1N(C)CCCN1C
[2]
  survivor count: 0 of 6
[5]
  survivor count: 0 of 6

## C/C(=N/N=C(N)N)C(C)C
dose: 120.0 mg/kg/injection, schedule: Q01DX Z (ip), vehicle: carboxymethylcellulose (CMC)
  survivor count: 4 of 6
dose: 240.0 mg/kg/injection, schedule: Q01DX Z (oral), vehicle: carboxymethylcellulose (CMC)
  survivor count: 1 of 6
dose: 480.0 mg/kg/injection, schedule: Q01DX Z (oral), vehicle: carboxymethylcellulose (CMC)
  survivor count: 0 of 6
dose: 960.0 mg/kg/injection, schedule: Q01DX Z (oral), vehicle: carboxymethylcellulose (CMC)
  survivor count: 0 of 6

## CCCCCCCCCCCCCCCC(=O)N(CCC#N)CCCCCCCCCN(CCC#N)C(=O)CCCCCCCCCCCCCCC
[9]
  survivor count: 6 of 6

## O=C(Nc1ccc(S(=O)(=O)Nc2ccc(N=Nc3ccc(S(=O)(=O)Nc4nccs4)cc3)cc2)cc1)C(N1CC1)(N1CC1)N1CC1
dose: 60.0 mg/kg/injection, schedule: Q01DX001 (ip), vehicle: saline
  survivor count: 1 of 6
dose: 75.0 mg/kg/injection, schedule: Q01DX001 (ip), vehicle: saline
  survivor count: 1 of 6
dose: 150.0 mg/kg/injection, schedule: Q01DX001 (ip), vehicle: saline
  survivor count: 0 of 6
[7]
  survivor count: 0 of 6
